Results: article PMC10351173
Construct, isoform or probe ends are uncertain for at least one entry. Negatives hold for the conditions tested.

Test system: PnWRKY15 (Panax notoginseng)
Assay: EMSA
Settings: LightShift Chemiluminescent EMSA kit (Pierce), pH and temperature not stated, recombinant protein, protein details: His (pET32a fusion)

## TACCGTGAAGAAATATATTTTTCTTTTACCCGACTATGGTGAGGGATGAA (double strand) [PPnOLP1 mutant W-box probe]
label: biotin
  binding result: no binding

## TACCGTGAAGAAATATATTTTTCTTTTGACCGACTATGGTGAGGGATGAA (double strand) [PPnOLP1 W-box probe]
label: biotin (unlabeled as competitor)
  binding result: binds
